Experimental data taken from patent US20090118285A1, “USE OF KCNQ-OPENERS FOR TREATING OR REDUCING THE SYMPTOMS OF SCHIZOPHRENIA” (H. Lundbeck A/S, priority 2006, published 2009).

Tested on: sensitised behavioural response to amphetamine in mice
Assay: Amphetamine sensitisation: sensitised behavioural response to amphetamine in mice
Format: in vivo, mouse
Conditions: ratio of the ED50 for baseline motility and the ED50 for the sensitised response

Row | SMILES | Therapeutic index
1 | COc1cc(N2CCOCC2)cc(C)c1NC(=O)CC1CCCC1 [2-Cyclopentyl-N-(2-methoxy-6-methyl-4-morpholin-4-yl-phenyl)-acetamide] | 2
2 | CCC(=O)Nc1c(Br)cc(N2CCOCC2)cc1C(F)(F)F [N-(2-Bromo-4-morpholin-4-yl-6-trifluoromethyl-phenyl)-propionamide] | 2
3 | Cc1cc(N2CCOCC2)cc(C)c1NC(=O)CC(C)(C)C | >1
4 | Cc1cc(N2CCOCC2)cc(C)c1NC(=O)CC1CCCC1 | 2
5 | CCOC(=O)Nc1ccc(NCc2c(C)cc(C)cc2C)cc1N [[2-Amino-4-(2,4,6-trimethyl-benzylamino)-phenyl]-carbamic acid ethyl ester] | 3
6 | Cc1cc(N2CCOCC2)nc(C)c1NC(=O)CC(C)(C)C [N-(2,4-Dimethyl-6-morpholin-4-yl-pyridin-3-yl)-3,3-dimethyl-butyramide] | 2
7 | Cc1nc(N2CCOCC2)nc(C)c1NC(=O)CC1CCCC1 [2-Cyclopentyl-N-(4,6-dimethyl-2-morpholin-4-yl-pyrimidin-5-yl)-acetamide] | 3
8 | CCOC(=O)Nc1ccc(NCc2ccc(F)cc2)cc1N | 2
9 | CCCCCC(=O)Nc1c(F)cc(N2CCOCC2)cc1F [Hexanoic acid (2,6-difluoro-4-morpholin-4-yl-phenyl)-amide] | >2
10 | Cc1nc(N2CCOCC2)nc(C)c1NC(=O)Cc1ccc(F)cc1 [N-(4,6-Dimethyl-2-morpholin-4-yl-pyrimidin-5-yl)-2-(4-fluoro-henyl)-acetamide] | 5
